Values quoted from earlier work in patent publication US11160814B1, “Methods of treatment for disease from coronavirus exposure” (Ensemble Group Holdings, priority 2020, dated 2021).
At least one structure is not confirmed: it was looked up by name or label, or the drawing left a doubt.

Experiments:
SARS-CoV-2 [1] = details: cited from earlier work
SARS-CoV-2 [2] = details: 'virtual twin' stochastic simulations, with BUD; cited from earlier work
[3] = between day 0 and day 14, BUD arm

SMILES: CCCC1O[C@@H]2C[C@H]3[C@@H]4CCC5=CC(=O)C=C[C@]5(C)[C@H]4[C@@H](O)C[C@]3(C)[C@]2(C(=O)CO)O1 (stereo partly drawn) [BUD, (RS)-11β,16α,17,21-tetrahydroxypregna-1,4-diene-3,20-dione cyclic 16,17-acetal with butyraldehyde]
- recovery time (SARS-CoV-2 [1]; 800 μg inhaled twice a day, adults within seven days of onset of mild COVID symptoms): reduced
- likelihood of needing urgent medical care (urgent care, emergency department consultation, or hospitalization) (SARS-CoV-2 [1]; 800 μg inhaled twice a day, adults within seven days of onset of mild COVID symptoms, versus usual care): reduced
- median time to symptom resolution measured by the FLUPro (SARS-CoV-2 [1]; BUD arm, UC 4, logrank test p=0.080): 3 days
- mean time to recovery (SARS-CoV-2 [1]; BUD arm, UC 11): 8 days
- participants with self-reported symptoms present at day 14 (SARS-CoV-2 [1]; BUD arm, UC 30%): 10%
- symptom resolution at day 14, as defined by the FLUPro user manual (SARS-CoV-2 [1]; BUD arm, UC 72%, p=0.166): 82%
- self-reported clinical recovery, median (SARS-CoV-2 [1]; BUD arm, UC 8 days): 7 days
- difference in proportion, self-reported symptoms at day 14 (SARS-CoV-2 [1]; BUD compared to UC, p=0.003): 0.204
- FLUPro domains: systemic symptoms (SARS-CoV-2 [1]; BUD than UC): significantly greater
- mean difference in change of FLUPro total score (SARS-CoV-2 [1]; BUD versus UC, 95% CI −0.21 to −0.00, p=0.044): −0.10
- mean difference in change of CCQ total score (SARS-CoV-2 [1]; BUD versus UC, p=0.016): −0.12 (−0.21 to −0.02)
- relative risk reduction (clinical deterioration, primary outcome) (SARS-CoV-2 [1]; BUD versus UC): 90%
- difference in proportions, primary outcome (SARS-CoV-2 [1]; UC arm versus BUD arm, 95% CI (0.043, 0.218), p=0.004): 0.131
- mean change (95% CI) in FLUPro total score (SARS-CoV-2 [1]; [3]): −0.65 (−0.80 to −0.50)
- mean change in CCQ total score (SARS-CoV-2 [1]; [3]): −0.49 (−0.63 to −0.35)
- reduction in the need for a hospital visit (SARS-CoV-2 [1]; budesonide versus usual care): 90%
- resolution of fever (SARS-CoV-2 [1]; budesonide versus usual care): quicker
- participants who required medical intervention (primary outcome) (SARS-CoV-2 [1]; of 70 patients in BUD arm, ten of 69 in usual care): one
- disease severity by self-measurement (SARS-CoV-2 [1]; patients treated with budesonide): less severe disease
- daily odds ratio of reaching the primary outcome, reduction (SARS-CoV-2 [2]): 3000%
